{
  "source": "paper PMC7819943",
  "about": "“Rice protein-binding microarrays: a tool to detect cis-acting elements near promoter regions in rice”",
  "note": "Some of the results follow.",
  "data": [
    {"target": "T1, OsSMF1 (Oryza sativa, UniProt Q6ZLB0 1-436)", "T1 sequence": "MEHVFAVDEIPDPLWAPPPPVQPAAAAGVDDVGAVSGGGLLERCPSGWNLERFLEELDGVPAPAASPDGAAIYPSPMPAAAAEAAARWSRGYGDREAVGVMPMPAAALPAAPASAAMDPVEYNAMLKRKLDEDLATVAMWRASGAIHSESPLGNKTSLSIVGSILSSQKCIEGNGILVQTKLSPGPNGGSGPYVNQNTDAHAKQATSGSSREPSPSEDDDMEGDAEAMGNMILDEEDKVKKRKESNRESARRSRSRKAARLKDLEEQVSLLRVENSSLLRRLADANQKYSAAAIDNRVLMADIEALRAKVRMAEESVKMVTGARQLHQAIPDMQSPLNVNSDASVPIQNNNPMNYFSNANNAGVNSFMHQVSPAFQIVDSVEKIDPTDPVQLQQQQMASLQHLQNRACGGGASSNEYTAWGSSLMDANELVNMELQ", "assay": "protein-binding microarray (RPBM); PBS, 2% BSA, 51.3 ng/ul salmon testes DNA, 50 uM zinc acetate, 200 nM TF, 25 C, 1 h; high values mean tight binding", "settings": "protein: recombinant; tags: N-terminal polyhistidine and DsRed monomer fusion (pET32a); chain copies: 2; label: CyDye5-dUTP incorporated in the synthesized complementary strand; 3' TTTTT single-stranded linker to array surface; dsDNA, one strand shown", "how_it_was_run": "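The binding signal for each feature is its fluorescence intensity in arbitrary units. An Axon 4000B scanner was used to read a custom Agilent array that had been made double-stranded with Cy5-dUTP primer extension, blocked with 2% BSA, incubated at 25 °C for 1 h with 200 nM protein in PBS, 2% BSA, salmon testes DNA and 50 µM zinc acetate, and washed. The protein was an N-terminal polyhistidine–DsRed transcription factor fusion from E. coli BL21-CodonPlus, purified on Ni–NTA.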", "values": [
      {"sequence": "AGTATGAAAGACCTGAGGATGACCCGGATTATATTCCTATCGGAGTCACCTAGTGCAG", "binding signal": "3320 fluorescence intensity (a.u.)"},
      {"sequence": "GTGGGTCCCACGCTGAGTCAGCTGCCACGTCGGACAAAACCGGAGTCACCTAGTGCAG", "binding signal": "33200 fluorescence intensity (a.u.)"},
      {"sequence": "TAAACTTTTACAAGCAATTATCTTGACCGTTTAATTTAAGCGGAGTCACCTAGTGCAG", "binding signal": "17200 fluorescence intensity (a.u.)"},
      {"sequence": "TGCGCGAGCTTGGACACGTACTGGAACGTCTTGACCAGCTCGGAGTCACCTAGTGCAG", "binding signal": "3870 fluorescence intensity (a.u.)"},
      {"sequence": "GGTCCATCTCTCCCGCAATCCAACGCGTGCGCGGTGCGCCCGGAGTCACCTAGTGCAG", "binding signal": "27300 fluorescence intensity (a.u.)"},
      {"sequence": "TCCCTTCCCTTGTGGCGGCAGTGGCGAAGGTACCTACGTTCGGAGTCACCTAGTGCAG", "binding signal": "3440 fluorescence intensity (a.u.)"},
      {"sequence": "TGTTTTGTCACATCAGTTGTGCTGGTGTGGCTAAAATGTTCGGAGTCACCTAGTGCAG", "binding signal": "3430 fluorescence intensity (a.u.)"},
      {"sequence": "GGGCTTGTGGCGCACGCGCCTGACACGTGCGCAGCGTCCGCGGAGTCACCTAGTGCAG", "binding signal": "9700 fluorescence intensity (a.u.)"},
      {"sequence": "GGTGACCCACCGTCAAATGCTTGCTCGTCGCGTGGAGAACCGGAGTCACCTAGTGCAG", "binding signal": "4430 fluorescence intensity (a.u.)"},
      {"sequence": "ACGAAAACCAACACATCACCAACTGCTCAGGCATAATTGCCGGAGTCACCTAGTGCAG", "binding signal": "3150 fluorescence intensity (a.u.)"},
      {"sequence": "CGCTCGTCGCCGATCCCATCCTCCCCGCGAGCGATCCGGGCGGAGTCACCTAGTGCAG", "binding signal": "3140 fluorescence intensity (a.u.)"},
      {"sequence": "AACTGCAGCAATATCACTCCCTCCAAATCAGCACATGCATCGGAGTCACCTAGTGCAG", "binding signal": "3560 fluorescence intensity (a.u.)"},
      {"sequence": "CACCCGTCCAAACTGGACACATCACCGCCAGAAGGCGCGGCGGAGTCACCTAGTGCAG", "binding signal": "5670 fluorescence intensity (a.u.)"},
      {"sequence": "CATTGACCGCGATCCGCTCCAATCCGCCGCGTCGTGCGCGCGGAGTCACCTAGTGCAG", "binding signal": "4000 fluorescence intensity (a.u.)"},
      {"sequence": "CTAATTAATTTGTTCCCTTAATTGGCACTTTGAATCTAAGCGGAGTCACCTAGTGCAG", "binding signal": "3730 fluorescence intensity (a.u.)"},
      {"sequence": "CGTAGCTCCGCACGTGCGTCGCTGCGCCACCGGCCGGCCACGGAGTCACCTAGTGCAG", "binding signal": "3490 fluorescence intensity (a.u.)"},
      {"sequence": "AGCCCATCGAACGACCCACCTACGTACGCCGCGTGGTCCTCGGAGTCACCTAGTGCAG", "binding signal": "4320 fluorescence intensity (a.u.)"},
      {"sequence": "TCCTCCTCTTCTTCTTCTCTGTCCGTCGTTCCAAATCTGTCGGAGTCACCTAGTGCAG", "binding signal": "3150 fluorescence intensity (a.u.)"},
      {"sequence": "GTTCCGGCGGCAGGATGACGGTCCAGATCGACGGCACGCTCGGAGTCACCTAGTGCAG", "binding signal": "3910 fluorescence intensity (a.u.)"},
      {"sequence": "TGCTCCTACTTGCTCTCTCCCTCTTTTCCAAAAGGAGCTCCGGAGTCACCTAGTGCAG", "binding signal": "3800 fluorescence intensity (a.u.)"},
      {"sequence": "TTAGGTGGTCCCACACGTCATGCTCTTCCCGTCTTCCACTCGGAGTCACCTAGTGCAG", "binding signal": "8890 fluorescence intensity (a.u.)"},
      {"sequence": "TGGTATTACAAGTGTAGTGATGTATGCATGTCTATTGTATCGGAGTCACCTAGTGCAG", "binding signal": "3500 fluorescence intensity (a.u.)"},
      {"sequence": "AGTATAAAAGACAGAAAACATTTGCTCTATTTGATGACACCGGAGTCACCTAGTGCAG", "binding signal": "33500 fluorescence intensity (a.u.)"},
      {"sequence": "GATGGGGAGAGCTCTCGGCGTGTCCACGTAGGATAGGAACCGGAGTCACCTAGTGCAG", "binding signal": "6770 fluorescence intensity (a.u.)"},
      {"sequence": "CGAGTCCAGCACAGTCGACTGCCACCACCACCGCTGCCGCCGGAGTCACCTAGTGCAG", "binding signal": "4160 fluorescence intensity (a.u.)"},
      {"sequence": "CAAGAGTCCTTTACCCTGCGCCACCTCCTGGCTCACCGGGCGGAGTCACCTAGTGCAG", "binding signal": "3270 fluorescence intensity (a.u.)"},
      {"sequence": "CAGGAGGCTTGCAGAGATGTCCCTCTGCTGCTTCAGCAGCCGGAGTCACCTAGTGCAG", "binding signal": "15400 fluorescence intensity (a.u.)"},
      {"sequence": "AGCCCACGTATGGAAGCCCGAACTTACAATAATCAAAAGCCGGAGTCACCTAGTGCAG", "binding signal": "24500 fluorescence intensity (a.u.)"},
      {"sequence": "GAAAAGTAAACTGGGCCCAAATGCCAAGTCAGCGAAGCTCCGGAGTCACCTAGTGCAG", "binding signal": "4220 fluorescence intensity (a.u.)"},
      {"sequence": "TAAACATGAGGCAGTATAGATATAATCTTCCGTGTGTGGTCGGAGTCACCTAGTGCAG", "binding signal": "3150 fluorescence intensity (a.u.)"},
      {"sequence": "ATCATATCCCAAAGCATGGTAGCCACTACTAATATTTGTTCGGAGTCACCTAGTGCAG", "binding signal": "3390 fluorescence intensity (a.u.)"},
      {"sequence": "CAGAACACGGTAACGATTCCGATTCCCTCACGTTAATTGTCGGAGTCACCTAGTGCAG", "binding signal": "3570 fluorescence intensity (a.u.)"},
      {"sequence": "TGGTGATGTGGATGTGATGTTTACATTTGCTGCTGCCTTTCGGAGTCACCTAGTGCAG", "binding signal": "9060 fluorescence intensity (a.u.)"},
      {"sequence": "GGAAACCTATCTATCGTGTTCTCGTATCCACTCGTGTCCACGGAGTCACCTAGTGCAG", "binding signal": "3680 fluorescence intensity (a.u.)"},
      {"sequence": "CGAGGCTAATCGATAGAACTGATATACTATGATAGTATATCGGAGTCACCTAGTGCAG", "binding signal": "3210 fluorescence intensity (a.u.)"},
      {"sequence": "GCCCAACATTTGCTCTTCGCAGACAGAGAGATAGCTGACGCGGAGTCACCTAGTGCAG", "binding signal": "26000 fluorescence intensity (a.u.)"},
      {"sequence": "GCTCTCTTGGCCTTAGGTTATCATGGTACGTGTTTCCCTACGGAGTCACCTAGTGCAG", "binding signal": "3280 fluorescence intensity (a.u.)"},
      {"sequence": "CTTTTCCTCTCATCTCGTCATCTCCACGCGCGGCATCTGACGGAGTCACCTAGTGCAG", "binding signal": "6180 fluorescence intensity (a.u.)"},
      {"sequence": "GTCGATGATTCAGAGGAGCTTCCTATTTACCCCTACGTGGCGGAGTCACCTAGTGCAG", "binding signal": "6240 fluorescence intensity (a.u.)"},
      {"sequence": "GGGATCGAGGGGATCCGATCGATCGATCTGTAGAGGAGGCCGGAGTCACCTAGTGCAG", "binding signal": "3250 fluorescence intensity (a.u.)"},
      {"sequence": "AGCTGCGTACAAGGTTACAGTCAGACTGAGTCTTGCTATCCGGAGTCACCTAGTGCAG", "binding signal": "3930 fluorescence intensity (a.u.)"},
      {"sequence": "TACCTTGTTTTGCCTATGTACGCGCGGACGTGTGGGCGAGCGGAGTCACCTAGTGCAG", "binding signal": "3820 fluorescence intensity (a.u.)"}
    ]}
  ]
}
